Data from the supplement of paper PMC10849652.
Some of the results follow.

Protein sequences, listed by entry. Tags and fused reporters are not part of them. Lines headed by an entry give the natural chain unless they say otherwise; changes in a name come on top.
UniProt Q6IQ22: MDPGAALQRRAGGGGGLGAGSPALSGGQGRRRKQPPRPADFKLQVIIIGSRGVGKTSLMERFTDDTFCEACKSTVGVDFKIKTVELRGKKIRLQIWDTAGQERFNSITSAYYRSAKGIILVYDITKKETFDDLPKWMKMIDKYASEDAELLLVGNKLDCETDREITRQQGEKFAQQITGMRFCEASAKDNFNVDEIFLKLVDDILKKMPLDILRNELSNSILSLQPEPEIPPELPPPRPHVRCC
UniProt P51159: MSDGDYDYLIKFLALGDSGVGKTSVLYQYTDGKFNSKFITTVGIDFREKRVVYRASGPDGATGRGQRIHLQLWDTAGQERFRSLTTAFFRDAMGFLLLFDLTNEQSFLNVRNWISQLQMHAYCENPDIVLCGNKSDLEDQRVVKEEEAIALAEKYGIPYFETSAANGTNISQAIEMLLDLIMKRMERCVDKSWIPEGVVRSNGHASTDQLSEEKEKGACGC
UniProt Q86X10: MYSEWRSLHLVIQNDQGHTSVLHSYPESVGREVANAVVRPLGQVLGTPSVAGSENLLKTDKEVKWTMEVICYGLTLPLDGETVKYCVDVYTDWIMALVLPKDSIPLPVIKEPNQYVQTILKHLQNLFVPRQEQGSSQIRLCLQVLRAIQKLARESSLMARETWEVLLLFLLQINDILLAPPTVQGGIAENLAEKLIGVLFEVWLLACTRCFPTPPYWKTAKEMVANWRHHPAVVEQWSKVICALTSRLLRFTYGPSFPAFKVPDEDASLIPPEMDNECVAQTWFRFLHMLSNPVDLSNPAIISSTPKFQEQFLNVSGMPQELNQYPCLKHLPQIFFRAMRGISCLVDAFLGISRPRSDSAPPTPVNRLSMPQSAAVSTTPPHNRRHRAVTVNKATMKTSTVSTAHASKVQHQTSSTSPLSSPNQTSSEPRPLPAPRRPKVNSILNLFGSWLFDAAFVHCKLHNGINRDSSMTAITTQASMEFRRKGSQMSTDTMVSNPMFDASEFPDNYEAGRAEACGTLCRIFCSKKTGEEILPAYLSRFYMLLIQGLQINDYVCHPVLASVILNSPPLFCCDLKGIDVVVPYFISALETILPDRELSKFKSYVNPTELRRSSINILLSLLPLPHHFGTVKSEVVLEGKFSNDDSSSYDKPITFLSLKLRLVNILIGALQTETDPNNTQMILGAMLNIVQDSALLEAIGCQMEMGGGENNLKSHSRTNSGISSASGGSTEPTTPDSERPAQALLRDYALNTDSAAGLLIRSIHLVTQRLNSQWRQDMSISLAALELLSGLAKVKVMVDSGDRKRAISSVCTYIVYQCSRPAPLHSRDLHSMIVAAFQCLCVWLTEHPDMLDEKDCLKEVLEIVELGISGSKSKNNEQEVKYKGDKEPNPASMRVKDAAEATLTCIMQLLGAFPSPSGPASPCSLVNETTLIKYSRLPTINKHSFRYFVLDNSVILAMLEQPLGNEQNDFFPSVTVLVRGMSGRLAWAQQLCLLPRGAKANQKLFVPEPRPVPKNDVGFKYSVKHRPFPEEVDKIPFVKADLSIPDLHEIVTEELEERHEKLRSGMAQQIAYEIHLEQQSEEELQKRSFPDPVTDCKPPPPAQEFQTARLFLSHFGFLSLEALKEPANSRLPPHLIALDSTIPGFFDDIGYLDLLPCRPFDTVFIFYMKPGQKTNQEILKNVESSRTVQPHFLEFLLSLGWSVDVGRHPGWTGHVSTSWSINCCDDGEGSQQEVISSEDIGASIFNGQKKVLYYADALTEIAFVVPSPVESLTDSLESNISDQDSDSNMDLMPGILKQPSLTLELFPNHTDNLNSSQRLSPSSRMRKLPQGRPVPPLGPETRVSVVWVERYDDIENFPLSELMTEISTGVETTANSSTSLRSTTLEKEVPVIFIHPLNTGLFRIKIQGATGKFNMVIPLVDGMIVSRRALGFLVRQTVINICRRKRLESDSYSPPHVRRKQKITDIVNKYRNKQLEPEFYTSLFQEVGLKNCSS
UniProt Q9UL26: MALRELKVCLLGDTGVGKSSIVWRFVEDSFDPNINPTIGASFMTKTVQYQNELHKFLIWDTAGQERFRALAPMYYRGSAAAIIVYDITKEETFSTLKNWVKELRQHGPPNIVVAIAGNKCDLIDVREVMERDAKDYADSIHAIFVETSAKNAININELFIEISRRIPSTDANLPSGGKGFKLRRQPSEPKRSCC
UniProt P49023, whole entry, looked up: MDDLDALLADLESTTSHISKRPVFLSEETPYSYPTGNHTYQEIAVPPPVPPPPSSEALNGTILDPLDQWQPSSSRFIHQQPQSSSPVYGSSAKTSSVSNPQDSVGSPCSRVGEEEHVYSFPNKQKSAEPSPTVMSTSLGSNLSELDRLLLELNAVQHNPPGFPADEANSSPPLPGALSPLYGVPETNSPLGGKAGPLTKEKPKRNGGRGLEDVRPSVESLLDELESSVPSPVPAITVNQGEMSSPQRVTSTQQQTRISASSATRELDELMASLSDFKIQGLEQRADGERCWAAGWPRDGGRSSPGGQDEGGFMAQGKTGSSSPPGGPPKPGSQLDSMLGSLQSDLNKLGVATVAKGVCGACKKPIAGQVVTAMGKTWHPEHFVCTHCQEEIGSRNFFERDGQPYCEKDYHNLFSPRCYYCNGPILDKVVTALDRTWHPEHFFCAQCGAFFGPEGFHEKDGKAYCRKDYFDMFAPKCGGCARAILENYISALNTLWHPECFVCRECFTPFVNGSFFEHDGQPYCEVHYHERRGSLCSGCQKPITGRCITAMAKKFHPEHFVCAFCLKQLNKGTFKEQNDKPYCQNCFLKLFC
UniProt Q9Y3T6: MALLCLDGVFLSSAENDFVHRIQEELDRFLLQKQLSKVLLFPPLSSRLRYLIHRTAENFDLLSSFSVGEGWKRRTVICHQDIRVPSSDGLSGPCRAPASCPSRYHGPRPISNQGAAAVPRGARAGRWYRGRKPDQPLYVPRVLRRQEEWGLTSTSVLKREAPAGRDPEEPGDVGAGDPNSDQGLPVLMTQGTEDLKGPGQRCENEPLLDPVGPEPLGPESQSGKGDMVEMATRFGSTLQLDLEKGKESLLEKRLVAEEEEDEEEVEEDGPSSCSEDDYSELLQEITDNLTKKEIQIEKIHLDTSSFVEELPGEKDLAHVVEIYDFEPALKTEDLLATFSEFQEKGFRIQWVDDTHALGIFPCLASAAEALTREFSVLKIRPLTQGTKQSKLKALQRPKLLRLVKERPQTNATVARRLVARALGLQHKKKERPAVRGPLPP
UniProt P49792, whole entry, looked up: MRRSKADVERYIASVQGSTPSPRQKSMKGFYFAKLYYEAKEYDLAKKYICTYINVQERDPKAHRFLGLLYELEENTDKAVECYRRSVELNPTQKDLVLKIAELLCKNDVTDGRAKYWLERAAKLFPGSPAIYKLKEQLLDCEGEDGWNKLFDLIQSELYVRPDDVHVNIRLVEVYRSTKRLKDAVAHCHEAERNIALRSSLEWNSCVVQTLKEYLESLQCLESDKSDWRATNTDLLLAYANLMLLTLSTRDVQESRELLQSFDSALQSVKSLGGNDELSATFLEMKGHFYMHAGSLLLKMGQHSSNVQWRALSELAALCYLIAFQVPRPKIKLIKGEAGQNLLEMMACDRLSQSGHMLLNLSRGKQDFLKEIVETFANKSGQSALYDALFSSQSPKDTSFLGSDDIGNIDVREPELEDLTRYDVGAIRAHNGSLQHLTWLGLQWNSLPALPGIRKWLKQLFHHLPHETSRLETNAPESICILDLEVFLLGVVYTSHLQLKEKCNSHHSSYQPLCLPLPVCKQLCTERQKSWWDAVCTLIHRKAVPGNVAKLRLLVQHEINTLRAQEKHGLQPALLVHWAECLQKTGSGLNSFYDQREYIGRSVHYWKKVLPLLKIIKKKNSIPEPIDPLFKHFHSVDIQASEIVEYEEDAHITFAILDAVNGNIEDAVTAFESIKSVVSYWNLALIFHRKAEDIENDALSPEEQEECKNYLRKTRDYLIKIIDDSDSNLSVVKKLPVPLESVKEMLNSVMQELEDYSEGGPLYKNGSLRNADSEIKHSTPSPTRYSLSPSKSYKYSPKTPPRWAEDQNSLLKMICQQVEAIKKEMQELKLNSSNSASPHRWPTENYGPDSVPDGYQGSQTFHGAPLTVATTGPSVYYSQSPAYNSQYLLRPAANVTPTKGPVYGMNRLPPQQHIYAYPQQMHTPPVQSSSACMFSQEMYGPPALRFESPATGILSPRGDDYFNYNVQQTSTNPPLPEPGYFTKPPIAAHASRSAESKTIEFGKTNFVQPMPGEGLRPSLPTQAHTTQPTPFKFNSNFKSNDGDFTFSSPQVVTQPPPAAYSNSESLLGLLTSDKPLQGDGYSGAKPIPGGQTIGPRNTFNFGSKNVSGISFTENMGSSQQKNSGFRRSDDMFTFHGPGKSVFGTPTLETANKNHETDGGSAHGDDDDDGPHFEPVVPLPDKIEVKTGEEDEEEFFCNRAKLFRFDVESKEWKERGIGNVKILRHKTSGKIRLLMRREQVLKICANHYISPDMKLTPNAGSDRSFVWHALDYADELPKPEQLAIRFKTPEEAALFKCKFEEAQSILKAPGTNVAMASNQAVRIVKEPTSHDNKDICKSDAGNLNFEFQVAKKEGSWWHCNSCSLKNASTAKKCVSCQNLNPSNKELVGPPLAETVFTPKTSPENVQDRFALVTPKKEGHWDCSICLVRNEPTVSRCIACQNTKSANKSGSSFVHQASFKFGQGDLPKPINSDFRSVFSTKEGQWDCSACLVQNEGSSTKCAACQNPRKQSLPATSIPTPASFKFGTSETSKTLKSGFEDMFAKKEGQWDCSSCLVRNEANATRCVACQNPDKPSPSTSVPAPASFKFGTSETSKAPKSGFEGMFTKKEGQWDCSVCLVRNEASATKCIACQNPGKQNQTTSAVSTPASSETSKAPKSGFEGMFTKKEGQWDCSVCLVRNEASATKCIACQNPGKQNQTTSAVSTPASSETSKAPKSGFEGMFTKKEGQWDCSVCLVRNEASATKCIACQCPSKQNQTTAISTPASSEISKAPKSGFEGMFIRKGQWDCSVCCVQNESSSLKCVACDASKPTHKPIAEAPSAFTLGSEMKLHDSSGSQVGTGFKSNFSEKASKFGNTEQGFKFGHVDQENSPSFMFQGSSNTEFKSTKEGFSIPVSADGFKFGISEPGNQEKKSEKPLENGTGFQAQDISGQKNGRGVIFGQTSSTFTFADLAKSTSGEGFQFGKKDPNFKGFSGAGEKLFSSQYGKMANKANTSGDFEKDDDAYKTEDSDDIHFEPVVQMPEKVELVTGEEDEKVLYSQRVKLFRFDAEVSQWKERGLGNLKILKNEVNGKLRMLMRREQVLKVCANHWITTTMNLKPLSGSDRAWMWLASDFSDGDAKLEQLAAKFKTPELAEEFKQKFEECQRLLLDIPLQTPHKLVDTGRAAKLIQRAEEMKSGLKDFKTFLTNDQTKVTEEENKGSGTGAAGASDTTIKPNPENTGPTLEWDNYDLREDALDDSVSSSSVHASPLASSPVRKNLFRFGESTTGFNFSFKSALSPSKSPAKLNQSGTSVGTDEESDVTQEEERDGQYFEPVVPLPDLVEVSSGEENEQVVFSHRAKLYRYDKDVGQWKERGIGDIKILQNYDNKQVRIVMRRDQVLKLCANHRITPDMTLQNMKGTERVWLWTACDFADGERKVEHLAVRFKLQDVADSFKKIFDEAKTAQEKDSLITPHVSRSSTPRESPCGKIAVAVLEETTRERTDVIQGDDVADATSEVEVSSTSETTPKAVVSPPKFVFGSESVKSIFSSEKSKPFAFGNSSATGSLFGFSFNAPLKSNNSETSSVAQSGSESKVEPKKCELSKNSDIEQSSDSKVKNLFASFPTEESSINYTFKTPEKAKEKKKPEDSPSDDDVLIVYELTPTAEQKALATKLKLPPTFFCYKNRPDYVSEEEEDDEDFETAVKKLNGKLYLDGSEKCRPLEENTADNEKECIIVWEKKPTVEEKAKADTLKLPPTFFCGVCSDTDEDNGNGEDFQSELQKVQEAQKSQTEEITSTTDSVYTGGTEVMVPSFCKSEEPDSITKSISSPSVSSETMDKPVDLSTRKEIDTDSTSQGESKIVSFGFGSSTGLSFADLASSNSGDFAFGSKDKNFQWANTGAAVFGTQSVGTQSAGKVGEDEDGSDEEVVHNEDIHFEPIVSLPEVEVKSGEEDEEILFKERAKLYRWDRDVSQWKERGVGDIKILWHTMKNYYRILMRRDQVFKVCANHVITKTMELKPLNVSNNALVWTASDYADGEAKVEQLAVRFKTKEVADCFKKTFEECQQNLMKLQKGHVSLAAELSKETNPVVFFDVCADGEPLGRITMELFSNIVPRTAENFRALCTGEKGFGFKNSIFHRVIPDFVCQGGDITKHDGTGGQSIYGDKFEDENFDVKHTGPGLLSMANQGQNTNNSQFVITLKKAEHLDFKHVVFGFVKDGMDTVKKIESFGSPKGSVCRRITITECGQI

What was measured:
Assay in all cases: log2 fold change, soluble protein after heating vs DMSO (PISA); higher = thermal stabilisation; K562 lysate, 10 uM; active = over 0.2 and 3.5 SD of the protein, either way, in both replicates (recomputed)
lapatinib = compound: CS(=O)(=O)CCNCc1ccc(-c2ccc3ncnc(Nc4ccc(OCc5cccc(F)c5)c(Cl)c4)c3c2)o1 [lapatinib]
Method in brief: (§1)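 K562 pellets were dounce-homogenised in PBS pH 7.4 containing 1 mM MgCl2, and the crude extract, at 1 mg/mL protein, was exposed to 10 μM compound for 30 min. Aliquots were heated for 3 min across 48°C-58°C, pooled, brought to 0.5% NP-40 at 4°C and spun at 21,000xg for 90 min, with the supernatant taken as soluble protein. TMTpro 16plex LC-MS/MS with equalised channel sums quantified that protein. Values are log-two fold changes in thermal stability relative to solvent controls, taken from duplicates.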

pictilisib = compound: CS(=O)(=O)N1CCN(Cc2cc3nc(-c4cccc5[nH]ncc45)nc(N4CCOCC4)c3s2)CC1 [pictilisib]
Method in brief: as §1

crizotinib = compound: C[C@@H](Oc1cc(-c2cnn(C3CCNCC3)c2)cnc1N)c1c(Cl)ccc(F)c1Cl [crizotinib]
Method in brief: as §1

[1] = compound: C[C@H](C1=CC=C(C=C1)C(=O)NC2=C3C=CNC3=NC=C2)N
Method in brief: as §1

duvelisib = compound: C[C@H](Nc1ncnc2nc[nH]c12)c1cc2cccc(Cl)c2c(=O)n1-c1ccccc1 [duvelisib]
Method in brief: as §1

gandotinib = compound: Cc1cc(Nc2cc(CN3CCOCC3)c3nc(C)c(Cc4ccc(Cl)cc4F)n3n2)n[nH]1 [gandotinib]
Method in brief: as §1

tozasertib = compound: Cc1cc(Nc2cc(N3CCN(C)CC3)nc(Sc3ccc(NC(=O)C4CC4)cc3)n2)n[nH]1 [tozasertib]
Method in brief: as §1

doramapimod = compound: Cc1ccc(-n2nc(C(C)(C)C)cc2NC(=O)Nc2ccc(OCCN3CCOCC3)c3ccccc23)cc1 [doramapimod]
Method in brief: as §1

bafetinib = compound: Cc1ccc(NC(=O)c2ccc(CN3CC[C@H](N(C)C)C3)c(C(F)(F)F)c2)cc1Nc1nccc(-c2cncnc2)n1 [bafetinib]
Method in brief: as §1

[2] = compound: Cc1cccc(CC(=O)N2CCc3c2ccc(-c2cn(C)c4ncnc(N)c24)c3F)n1
Method in brief: as §1

nilotinib = compound: Cc1cn(-c2cc(NC(=O)c3ccc(C)c(Nc4nccc(-c5cccnc5)n4)c3)cc(C(F)(F)F)c2)cn1 [nilotinib]
Method in brief: as §1

[3] = compound: Cc1nc(Nc2n[nH]c3c2CN(C(=O)N[C@H](CN(C)C)c2ccccc2)C3(C)C)c2sccc2n1
Method in brief: as §1

dasatinib = compound: Cc1nc(Nc2ncc(C(=O)Nc3c(C)cccc3Cl)s2)cc(N2CCN(CCO)CC2)n1 [dasatinib]
Method in brief: as §1

[4] = compound: Cc1ncc(-c2ccnc(Nc3ccc(S(C)(=O)=O)cc3)n2)n1C(C)C
Method in brief: as §1

[5] = compound: Cn1cc(-c2ccc3c(c2)CCN3C(=O)Cc2cccc(C(F)(F)F)c2)c2c(N)ncnc21
Method in brief: as §1

quisinostat = compound: Cn1cc(CNCC2CCN(c3ncc(C(=O)NO)cn3)CC2)c2ccccc21 [quisinostat]
Method in brief: as §1

tipifarnib = compound: Cn1cncc1[C@@](N)(c1ccc(Cl)cc1)c1ccc2c(c1)c(-c1cccc(Cl)c1)cc(=O)n2C [tipifarnib]
Method in brief: as §1

[6] = compound: NC(=O)Nc1cc(-c2cccc(F)c2)sc1C(=O)N[C@H]1CCCNC1
Method in brief: as §1

[7] = compound: NC(=O)c1cnc(N[C@@H]2CCCC[C@@H]2N)nc1Nc1cccc(-n2nccn2)c1
Method in brief: as §1

[8] = compound: NC1(c2ccc(-c3nc4ccn5c(=O)[nH]nc5c4cc3-c3ccccc3)cc2)CCC1
Method in brief: as §1

Target | log2 fold change (lapatinib) | log2 fold change (pictilisib) | log2 fold change (crizotinib) | log2 fold change [1] | log2 fold change (duvelisib) | log2 fold change (gandotinib) | log2 fold change (tozasertib) | log2 fold change (doramapimod) | log2 fold change (bafetinib) | log2 fold change [2] | log2 fold change (nilotinib) | log2 fold change [3] | log2 fold change (dasatinib) | log2 fold change [4] | log2 fold change [5] | log2 fold change (quisinostat) | log2 fold change (tipifarnib) | log2 fold change [6] | log2 fold change [7] | log2 fold change [8]
RABEPK (UniProt Q7Z6M1) | inactive: 0.003 | inactive: -0.016 | inactive: -0.008 | inactive: -0.069 | inactive: 0.018 | inactive: 0.007 | inactive: -0.033 | inactive: 0.005 | inactive: 0.024 | inactive: 0.04 | inactive: -0.003 | inactive: 0.005 | inactive: 0.005 | inactive: -0.01 | inactive: 0.012 | inactive: 0.004 | inactive: 0.007 | inactive: -0.018 | inactive: 0.013 | inactive: 0.002
RAP1GDS1 isoform 5 (UniProt P52306) | inactive: 0.007 | inactive: -0.019 | inactive: 0.017 | inactive: -0.073 | inactive: 0.02 | inactive: -0.04 | inactive: 0.012 | inactive: 0.01 | inactive: 0.014 | inactive: 0.04 | inactive: -0.024 | inactive: 0.021 | inactive: 0.013 | inactive: -0.07 | inactive: 0.004 | inactive: 0.006 | inactive: 0.005 | inactive: 0.02 | inactive: -0.019 | inactive: -0.014
RAB12 (UniProt Q6IQ22) | inactive: -0.016 | inactive: -0.029 | inactive: -0.034 | inactive: -0.06 | inactive: 0.025 | inactive: 0.022 | inactive: -0.006 | inactive: 0.048 | inactive: -0.029 | inactive: 0.04 | inactive: -0.061 | inactive: 0.015 | inactive: 0.051 | inactive: 0.04 | inactive: 0.022 | inactive: -0.077 | inactive: -0.023 | inactive: 0.049 | inactive: -0.025 | inactive: -0.036
RAP1B (UniProt F5GZG1) | inactive: 0.003 | inactive: 0.02 | inactive: -0.022 | inactive: -0.313 | inactive: 0.016 | inactive: 0.127 | inactive: 0.103 | inactive: -0.115 | inactive: -0.098 | inactive: 0.201 | inactive: 0.012 | inactive: -0.066 | inactive: 0.05 | inactive: -0.253 | inactive: 0.047 | inactive: -0.011 | inactive: -0.058 | inactive: 0.087 | inactive: -0.019 | inactive: -0.029
RAD1 (UniProt O60671) | inactive: 0.008 | inactive: -0.03 | inactive: -0.046 | inactive: -0.053 | inactive: 0.026 | inactive: 0.023 | inactive: 0.076 | inactive: -0.019 | inactive: 0.003 | inactive: 0.024 | inactive: 0.029 | inactive: -0.011 | inactive: 0.008 | inactive: 0.02 | inactive: 0.02 | inactive: -0.074 | inactive: -0.04 | inactive: -0.013 | inactive: -0.002 | inactive: 0.051
RAB27A (UniProt P51159) | inactive: 0.013 | inactive: -0.008 | inactive: 0.026 | active: 0.563 | inactive: -0.009 | inactive: -0.081 | inactive: 0.024 | inactive: -0.034 | inactive: 0.038 | inactive: -0.054 | inactive: -0.018 | inactive: 0.02 | inactive: 0.022 | inactive: -0.059 | inactive: 0.003 | inactive: 0.037 | inactive: 0.038 | inactive: -0.024 | inactive: 0.014 | inactive: 0.021
RALGAPB (UniProt Q86X10) | inactive: 0.021 | inactive: -0.062 | inactive: -0.088 | inactive: -0.09 | inactive: 0.103 | inactive: -0.06 | inactive: 0.062 | inactive: 0.046 | inactive: -0.043 | inactive: 0.103 | inactive: -0.022 | inactive: 0.029 | inactive: -0.026 | inactive: 0.026 | inactive: 0.015 | inactive: -0.048 | inactive: -0.021 | inactive: 0.053 | inactive: -0.019 | inactive: -0.044
RAB10 (UniProt P61026) | inactive: 0.049 | inactive: -0.014 | inactive: 0.083 | inactive: -0.026 | inactive: -0.021 | inactive: -0.004 | inactive: 0.016 | inactive: -0.018 | inactive: 0.015 | inactive: -0.007 | inactive: 0.034 | inactive: -0.024 | inactive: -0.006 | inactive: -0.087 | inactive: 0.003 | inactive: 0.028 | inactive: -0.044 | inactive: -0.019 | inactive: -0.049 | inactive: -0.023
PYM1 (UniProt Q9BRP8) | inactive: 0.019 | inactive: 0.008 | inactive: -0.011 | inactive: -0.004 | inactive: -0.05 | inactive: 0.003 | inactive: 0.004 | inactive: 0.051 | inactive: 0.012 | inactive: 0.036 | inactive: 0.027 | inactive: 0.006 | inactive: -0.075 | inactive: 0.04 | inactive: -0.001 | inactive: -0.047 | inactive: -0.018 | inactive: 0.007 | inactive: -0.025 | inactive: -0.003
RAB22A (UniProt Q9UL26) | inactive: -0.024 | inactive: -0.049 | inactive: -0.008 | inactive: -0.056 | inactive: 0.016 | inactive: 0.072 | inactive: -0.034 | inactive: 0.002 | inactive: -0.002 | inactive: 0.073 | inactive: -0.009 | inactive: -0.016 | inactive: -0.056 | inactive: 0.029 | inactive: -0.053 | inactive: 0.013 | inactive: -0.025 | inactive: -0.013 | inactive: 0.047 | inactive: -0.053
RAB11B (UniProt Q15907) | inactive: -0.009 | inactive: -0.032 | inactive: 0.006 | inactive: -0.04 | inactive: 0.039 | inactive: -0.018 | inactive: 0.018 | inactive: 0.004 | inactive: 0.036 | inactive: 0.072 | inactive: 0.027 | inactive: -0.009 | inactive: -0.011 | inactive: -0.005 | inactive: 0.021 | inactive: -0.017 | inactive: -0.014 | inactive: -0.041 | inactive: 0.005 | inactive: -0.012
PXN isoform 3 (UniProt P49023) | inactive: 0.071 | inactive: 0.01 | inactive: -0.027 | inactive: 0.019 | inactive: 0 | inactive: 0.07 | inactive: 0.018 | inactive: 0.045 | inactive: 0.039 | inactive: -0.024 | inactive: 0.037 | inactive: 0.035 | inactive: -0.026 | inactive: 0.061 | inactive: -0.065 | inactive: -0.008 | inactive: -0.01 | inactive: -0.003 | inactive: -0.029 | inactive: -0.037
QTRT1 (UniProt Q9BXR0) | inactive: -0.009 | inactive: 0.011 | inactive: -0.021 | inactive: -0.088 | inactive: 0.016 | inactive: 0.031 | inactive: -0.028 | inactive: 0.038 | inactive: -0.005 | inactive: 0.05 | inactive: 0.004 | inactive: 0.024 | inactive: -0.004 | inactive: -0.005 | inactive: -0.019 | inactive: 0.02 | inactive: 0.07 | inactive: 0.007 | inactive: 0.01 | inactive: -0.01
R3HCC1 (UniProt Q9Y3T6) | inactive: -0.018 | inactive: -0.049 | inactive: 0 | inactive: -0.034 | inactive: 0 | inactive: 0.089 | inactive: 0.006 | inactive: 0.044 | inactive: 0.002 | inactive: 0.08 | inactive: -0.023 | inactive: 0.012 | inactive: 0.043 | inactive: 0.011 | inactive: -0.049 | inactive: -0.014 | inactive: -0.058 | inactive: -0.036 | inactive: 0.003 | inactive: 0.038
RANBP2 (UniProt P49792) | inactive: 0.002 | inactive: -0.001 | inactive: -0.01 | inactive: -0.009 | inactive: -0.014 | inactive: -0.069 | inactive: 0.001 | inactive: -0.002 | inactive: -0.02 | inactive: 0.06 | inactive: -0.018 | inactive: 0.001 | inactive: -0.059 | inactive: 0.006 | inactive: 0.021 | inactive: -0.05 | inactive: -0.055 | inactive: 0.046 | inactive: 0.007 | inactive: -0.003
